Laboratory results: PubChem BioAssay AID686938 (Drosophila RNAi Screening Center, 2013)
Test: 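Looking for CRAC channel components and the factors controlling them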 (primary screen). Cells: Drosophila S2R+ cells. Reagent: long dsRNA against Drosophila genes, about 0.25 µg dsRNA per well, roughly 10,000 cells. Timing: 5 days of knock-down before the calcium assay. Conditions: thapsigargin (SERCA pump blocker) to empty calcium stores; entry signal taken 4 min after adding it. Read-out: 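Duplicate raw fluo-4 intensities per well from a plate reader, at rest and four minutes after thapsigargin emptied calcium stores; entry-to-rest ratio filled for only some wells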. Reading the numbers: calcium entry signal: higher = stronger calcium signal after store depletion; resting calcium signal: higher = higher resting calcium signal. Rule for the call: 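Called when the plate z-score of the entry-to-rest ratio, mean of duplicates, falls below −3; wells with low overall dye signal (Fmax z below −2) or more than five off-targets excluded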. Meaning of the calls: active = strongly reduced calcium entry; inactive = no strong reduction.
The screen tested about 23,000 reagents; this is a random part of those that have a named target and a result. Of all reagents, 75 (0.33%) are marked active. 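Raw plate signals without normalisation; calls rest on plate z-scores that were not deposited; ratio present for only 364 wells.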 Unmarked entries are inactive. A plus sign joins genes that one reagent is predicted to hit. The record does not give: the dose of the treatment.

gene,amplicon,"calcium entry signal, replicate 1 (fluorescence units)","calcium entry signal, replicate 2 (fluorescence units)","resting calcium signal, replicate 1 (fluorescence units)","resting calcium signal, replicate 2 (fluorescence units)"
Polr2F (GeneID 48312),DRSC12366,1.11e7,1.51e7,8.16e6,1.13e7
GATAe (GeneID 41945),DRSC14223,3.43e7,3.52e7,1.64e7,1.73e7
GATAe (GeneID 41945),DRSC23209,4.77e7,3.69e7,2.45e7,1.70e7
Rpn12R (GeneID 2768973),DRSC09842,5.08e7,6.35e7,2.24e7,2.30e7
Rpt1 (GeneID 35701),DRSC07542,1.18e7,1.22e7,8.52e6,7.79e6
CG33310 (GeneID 2768910),DRSC01897,3.54e7,2.30e7,1.70e7,1.14e7
Baldspot (GeneID 39860),DRSC09671,4.70e7,7.67e7,2.25e7,3.03e7
CG5704 (GeneID 48613),DRSC08572,4.04e7,3.65e7,1.88e7,2.01e7
mRpL3 (GeneID 32523),DRSC20100,3.93e7,3.73e7,1.90e7,1.76e7
ste24c + CR30461 (retired record),DRSC05639,2.79e7,4.68e7,1.41e7,2.27e7
ste24c + CR30461 (retired record),DRSC07316,3.89e7,4.33e7,1.71e7,2.04e7
CG17855 (GeneID 34269),DRSC02638,2.41e7,3.65e7,1.12e7,1.53e7
Sry-delta (GeneID 43572),DRSC16869,3.24e7,4.21e7,1.73e7,1.97e7
Nup160 (GeneID 34549),DRSC02774,2.38e7,3.17e7,1.26e7,1.61e7
fz2 (GeneID 40090),DRSC09595,2.11e7,2.50e7,9.92e6,1.20e7
fz2 (GeneID 40090),DRSC10087,4.42e7,5.59e7,2.09e7,2.77e7
fz2 (GeneID 40090),DRSC11349,2.26e7,3.38e7,1.11e7,1.53e7
par-6 (GeneID 32752),DRSC20359,3.38e7,3.37e7,1.58e7,1.55e7
Ugt37A3 (GeneID 41574),DRSC15937,4.35e7,2.85e7,2.09e7,1.53e7
ATPsynO (GeneID 41845),DRSC16780,3.83e7,5.38e7,1.74e7,2.40e7
CG7695 (GeneID 42234),DRSC16289,4.10e7,4.67e7,4.52e7,2.06e7
PIG-B (GeneID 38446),DRSC08216,3.74e7,6.59e7,2.58e7,3.05e7
PIG-B (GeneID 38446),DRSC22598,3.79e7,3.38e7,2.26e7,1.56e7
Eig71Ei (GeneID 39710),DRSC11156,5.01e7,6.32e7,2.15e7,2.69e7
CG33062 (GeneID 318840),DRSC22195,3.51e7,3.51e7,1.81e7,1.88e7
ara (GeneID 39439),DRSC11322,2.14e7,1.82e7,1.25e7,1.03e7
ara (GeneID 39439),DRSC22984,5.31e7,2.65e7,2.64e7,1.21e7
CD98hc (GeneID 40941),DRSC15453,4.73e7,3.28e7,2.15e7,1.54e7
CatB (GeneID 34198),DRSC03194,4.58e7,,2.04e7,
CG13607 (GeneID 42859),DRSC14610,6.37e7,4.00e7,2.68e7,1.69e7
CG43191 (GeneID 12798408),DRSC05326,3.68e7,3.97e7,1.69e7,1.56e7
twy (GeneID 39330),DRSC10562,2.21e7,2.92e7,1.21e7,1.42e7
CG2701 (GeneID 31261),DRSC18590,3.66e7,3.93e7,1.72e7,1.74e7
La (GeneID 35305),DRSC03358,3.21e7,2.95e7,1.62e7,1.29e7
CG15484 (GeneID 34682),DRSC02494,5.39e7,5.06e7,2.50e7,2.30e7
CG15484 (GeneID 34682),DRSC22836,2.59e7,3.49e7,1.33e7,1.54e7
Cyp312a1 (GeneID 40005),DRSC11128,3.63e7,6.31e7,1.77e7,2.39e7
sxc (GeneID 35486),DRSC04911,3.58e7,4.42e7,1.94e7,2.07e7
CG8958 (GeneID 32575),DRSC20134,3.82e7,3.43e7,1.96e7,1.57e7
CG7025 (GeneID 34042),DRSC03002,3.99e7,3.05e7,2.00e7,1.46e7

Quoted from the entries so far (4 entries):
gene,amplicon,"calcium entry signal, replicate 1 (fluorescence units)","calcium entry signal, replicate 2 (fluorescence units)","resting calcium signal, replicate 1 (fluorescence units)","resting calcium signal, replicate 2 (fluorescence units)"
Sry-delta (GeneID 43572),DRSC16869,3.24e7,4.21e7,1.73e7,1.97e7
Nup160 (GeneID 34549),DRSC02774,2.38e7,3.17e7,1.26e7,1.61e7
fz2 (GeneID 40090),DRSC09595,2.11e7,2.50e7,9.92e6,1.20e7
fz2 (GeneID 40090),DRSC10087,4.42e7,5.59e7,2.09e7,2.77e7
